Some of the results follow.
How the values were obtained:
Assay in all cases: log2 fold change, soluble protein after heating vs DMSO (PISA); higher = thermal stabilisation; K562 cells, 10 uM, 30 min; active = over 0.2 and 3.5 SD of the protein, either way, in both replicates (recomputed)
saracatinib = compound: CN1CCN(CCOc2cc(OC3CCOCC3)c3c(Nc4c(Cl)ccc5c4OCO5)ncnc3c2)CC1 [saracatinib]
Outline: (§1)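 Soluble protein was quantified by TMTpro 16plex LC-MS/MS after channel sums were equalised. It was obtained as the supernatant after 21,000xg for 90 min from pooled aliquots of K562 cells (2×10^6 cells/mL, 10 μM compound, 30 min) heated for 3 min across 48°C-58°C and extracted in PBS with 0.5% NP-40 at 4°C. Thermal stability values are relative to control samples and come from duplicates. They are given as log2 fold changes.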

The chains behind the UniProt entries cited, without tags or fusion partners. Where a name states a change or a piece, a line headed by the entry shows the natural chain unless it says otherwise.
UniProt Q96JM3: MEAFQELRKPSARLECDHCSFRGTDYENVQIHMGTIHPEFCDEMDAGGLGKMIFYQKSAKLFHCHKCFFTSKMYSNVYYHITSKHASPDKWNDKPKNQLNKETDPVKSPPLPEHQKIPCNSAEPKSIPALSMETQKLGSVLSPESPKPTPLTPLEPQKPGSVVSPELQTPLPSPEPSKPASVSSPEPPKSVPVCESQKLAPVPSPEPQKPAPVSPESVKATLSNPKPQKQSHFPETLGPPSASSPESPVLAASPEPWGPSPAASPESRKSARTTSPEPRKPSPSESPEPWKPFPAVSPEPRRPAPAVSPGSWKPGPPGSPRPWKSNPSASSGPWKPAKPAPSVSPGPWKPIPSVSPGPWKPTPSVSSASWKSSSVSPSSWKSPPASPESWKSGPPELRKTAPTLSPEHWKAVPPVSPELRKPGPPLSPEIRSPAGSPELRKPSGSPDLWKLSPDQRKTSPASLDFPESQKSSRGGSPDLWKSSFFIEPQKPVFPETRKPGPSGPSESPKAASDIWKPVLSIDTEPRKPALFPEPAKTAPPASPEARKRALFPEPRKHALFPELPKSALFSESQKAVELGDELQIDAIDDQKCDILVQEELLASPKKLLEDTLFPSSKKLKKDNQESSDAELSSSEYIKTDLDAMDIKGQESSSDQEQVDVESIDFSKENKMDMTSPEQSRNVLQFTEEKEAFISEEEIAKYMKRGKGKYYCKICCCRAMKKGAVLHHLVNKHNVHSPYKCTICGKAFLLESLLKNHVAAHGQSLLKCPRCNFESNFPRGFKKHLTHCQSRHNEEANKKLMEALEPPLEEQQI
UniProt O95319: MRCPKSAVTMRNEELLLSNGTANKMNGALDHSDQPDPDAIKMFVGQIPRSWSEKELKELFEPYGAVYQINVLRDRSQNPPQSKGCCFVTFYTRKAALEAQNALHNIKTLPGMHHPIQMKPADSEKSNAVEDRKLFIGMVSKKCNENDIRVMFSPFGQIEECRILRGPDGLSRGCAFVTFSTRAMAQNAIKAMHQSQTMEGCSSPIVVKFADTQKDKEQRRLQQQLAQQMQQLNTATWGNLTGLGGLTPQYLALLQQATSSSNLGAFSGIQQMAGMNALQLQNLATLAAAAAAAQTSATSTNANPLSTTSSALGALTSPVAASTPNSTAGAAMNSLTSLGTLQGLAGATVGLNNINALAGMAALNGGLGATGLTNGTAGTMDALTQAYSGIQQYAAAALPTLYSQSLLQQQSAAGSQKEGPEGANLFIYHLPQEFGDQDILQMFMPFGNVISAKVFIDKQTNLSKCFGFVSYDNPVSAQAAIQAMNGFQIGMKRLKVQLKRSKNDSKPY
UniProt A8MTT3: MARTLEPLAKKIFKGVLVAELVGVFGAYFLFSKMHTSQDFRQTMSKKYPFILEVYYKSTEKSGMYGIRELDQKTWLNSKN
UniProt Q00587: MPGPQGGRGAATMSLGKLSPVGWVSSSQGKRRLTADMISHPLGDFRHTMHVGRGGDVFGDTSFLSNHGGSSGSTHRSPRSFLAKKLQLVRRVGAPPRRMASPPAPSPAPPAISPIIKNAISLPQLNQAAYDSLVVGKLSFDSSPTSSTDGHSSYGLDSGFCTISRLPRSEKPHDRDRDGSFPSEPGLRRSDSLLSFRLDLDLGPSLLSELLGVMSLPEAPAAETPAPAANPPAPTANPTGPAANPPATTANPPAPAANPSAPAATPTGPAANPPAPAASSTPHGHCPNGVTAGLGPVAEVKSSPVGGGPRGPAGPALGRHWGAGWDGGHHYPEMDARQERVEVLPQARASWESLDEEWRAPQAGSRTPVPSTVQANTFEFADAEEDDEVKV
UniProt Q02224: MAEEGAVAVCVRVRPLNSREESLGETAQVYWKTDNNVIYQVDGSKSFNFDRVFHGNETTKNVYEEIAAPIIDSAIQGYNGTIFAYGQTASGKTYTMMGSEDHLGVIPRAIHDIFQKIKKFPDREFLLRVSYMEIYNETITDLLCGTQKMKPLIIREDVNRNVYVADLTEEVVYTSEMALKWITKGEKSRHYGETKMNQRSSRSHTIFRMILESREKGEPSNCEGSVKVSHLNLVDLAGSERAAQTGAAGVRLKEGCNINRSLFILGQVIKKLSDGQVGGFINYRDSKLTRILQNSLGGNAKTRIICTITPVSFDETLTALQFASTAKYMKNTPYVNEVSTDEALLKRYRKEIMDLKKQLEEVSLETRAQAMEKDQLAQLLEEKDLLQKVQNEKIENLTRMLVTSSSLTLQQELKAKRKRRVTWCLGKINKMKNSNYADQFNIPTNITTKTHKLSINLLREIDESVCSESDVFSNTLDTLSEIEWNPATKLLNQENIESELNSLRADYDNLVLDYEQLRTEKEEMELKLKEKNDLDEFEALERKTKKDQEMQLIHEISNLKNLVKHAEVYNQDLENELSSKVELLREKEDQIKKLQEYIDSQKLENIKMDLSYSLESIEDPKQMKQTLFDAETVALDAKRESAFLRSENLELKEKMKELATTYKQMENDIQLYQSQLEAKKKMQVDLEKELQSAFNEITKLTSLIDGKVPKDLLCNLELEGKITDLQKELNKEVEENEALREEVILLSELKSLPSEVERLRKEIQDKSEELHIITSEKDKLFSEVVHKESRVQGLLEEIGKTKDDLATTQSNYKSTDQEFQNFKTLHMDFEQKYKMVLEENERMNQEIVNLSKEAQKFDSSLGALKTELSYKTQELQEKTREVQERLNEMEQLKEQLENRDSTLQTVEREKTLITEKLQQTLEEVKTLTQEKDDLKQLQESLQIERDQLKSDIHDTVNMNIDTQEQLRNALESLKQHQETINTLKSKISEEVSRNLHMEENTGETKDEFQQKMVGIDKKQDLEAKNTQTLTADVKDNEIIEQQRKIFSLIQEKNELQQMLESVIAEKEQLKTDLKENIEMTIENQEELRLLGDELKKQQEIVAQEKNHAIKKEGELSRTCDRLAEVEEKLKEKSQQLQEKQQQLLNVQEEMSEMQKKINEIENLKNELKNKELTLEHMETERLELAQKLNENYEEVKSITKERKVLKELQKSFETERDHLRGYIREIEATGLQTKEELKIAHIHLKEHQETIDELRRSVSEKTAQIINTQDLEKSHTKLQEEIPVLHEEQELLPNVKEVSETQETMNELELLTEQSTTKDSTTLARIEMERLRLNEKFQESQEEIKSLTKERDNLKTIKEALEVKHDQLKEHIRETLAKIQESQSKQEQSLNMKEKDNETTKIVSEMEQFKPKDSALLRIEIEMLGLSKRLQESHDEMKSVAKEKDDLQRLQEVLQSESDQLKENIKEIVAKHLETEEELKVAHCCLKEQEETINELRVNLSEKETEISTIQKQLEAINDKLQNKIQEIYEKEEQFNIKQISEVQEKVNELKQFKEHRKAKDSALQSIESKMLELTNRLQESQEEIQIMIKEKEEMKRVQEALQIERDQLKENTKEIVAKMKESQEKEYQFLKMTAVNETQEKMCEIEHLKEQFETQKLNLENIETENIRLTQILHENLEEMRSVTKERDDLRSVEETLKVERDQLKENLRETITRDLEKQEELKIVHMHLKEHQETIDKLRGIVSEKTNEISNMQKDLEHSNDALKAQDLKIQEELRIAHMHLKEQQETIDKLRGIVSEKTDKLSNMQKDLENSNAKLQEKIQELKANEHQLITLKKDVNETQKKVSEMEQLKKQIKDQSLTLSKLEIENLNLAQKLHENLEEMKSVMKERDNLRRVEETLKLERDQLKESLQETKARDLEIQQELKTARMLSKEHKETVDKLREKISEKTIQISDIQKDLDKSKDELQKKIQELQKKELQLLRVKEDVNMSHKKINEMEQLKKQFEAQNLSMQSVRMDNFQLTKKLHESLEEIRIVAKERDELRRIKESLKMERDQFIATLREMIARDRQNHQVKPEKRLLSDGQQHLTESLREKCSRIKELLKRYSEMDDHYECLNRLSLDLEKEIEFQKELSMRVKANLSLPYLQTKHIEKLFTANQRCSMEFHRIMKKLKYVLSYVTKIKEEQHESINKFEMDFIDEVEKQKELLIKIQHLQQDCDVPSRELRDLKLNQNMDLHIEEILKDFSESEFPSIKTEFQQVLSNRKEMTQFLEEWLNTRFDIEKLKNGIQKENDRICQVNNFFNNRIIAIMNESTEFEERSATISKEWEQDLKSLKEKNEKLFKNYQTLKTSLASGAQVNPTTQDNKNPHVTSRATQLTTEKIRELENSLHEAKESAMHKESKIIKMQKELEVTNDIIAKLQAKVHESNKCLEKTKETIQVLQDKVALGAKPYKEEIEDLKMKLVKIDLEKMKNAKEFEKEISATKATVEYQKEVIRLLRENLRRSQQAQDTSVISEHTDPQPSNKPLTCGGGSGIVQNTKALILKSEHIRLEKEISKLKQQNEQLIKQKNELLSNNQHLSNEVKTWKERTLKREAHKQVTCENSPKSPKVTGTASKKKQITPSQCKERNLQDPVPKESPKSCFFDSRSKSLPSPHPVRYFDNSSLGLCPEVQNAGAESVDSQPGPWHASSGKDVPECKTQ
UniProt Q96JB5: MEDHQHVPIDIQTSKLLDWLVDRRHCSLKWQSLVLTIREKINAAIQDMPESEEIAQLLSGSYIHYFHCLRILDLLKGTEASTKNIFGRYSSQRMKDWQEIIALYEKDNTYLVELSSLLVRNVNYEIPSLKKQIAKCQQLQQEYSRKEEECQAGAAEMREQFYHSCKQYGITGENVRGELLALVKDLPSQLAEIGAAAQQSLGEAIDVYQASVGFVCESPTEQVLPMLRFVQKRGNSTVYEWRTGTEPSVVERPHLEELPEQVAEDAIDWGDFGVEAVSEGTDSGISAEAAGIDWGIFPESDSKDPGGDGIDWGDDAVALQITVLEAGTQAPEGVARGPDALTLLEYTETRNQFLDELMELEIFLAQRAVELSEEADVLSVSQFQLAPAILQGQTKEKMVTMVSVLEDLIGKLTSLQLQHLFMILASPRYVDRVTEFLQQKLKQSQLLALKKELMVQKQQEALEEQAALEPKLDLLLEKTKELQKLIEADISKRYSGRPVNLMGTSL
UniProt Q9Y6K0: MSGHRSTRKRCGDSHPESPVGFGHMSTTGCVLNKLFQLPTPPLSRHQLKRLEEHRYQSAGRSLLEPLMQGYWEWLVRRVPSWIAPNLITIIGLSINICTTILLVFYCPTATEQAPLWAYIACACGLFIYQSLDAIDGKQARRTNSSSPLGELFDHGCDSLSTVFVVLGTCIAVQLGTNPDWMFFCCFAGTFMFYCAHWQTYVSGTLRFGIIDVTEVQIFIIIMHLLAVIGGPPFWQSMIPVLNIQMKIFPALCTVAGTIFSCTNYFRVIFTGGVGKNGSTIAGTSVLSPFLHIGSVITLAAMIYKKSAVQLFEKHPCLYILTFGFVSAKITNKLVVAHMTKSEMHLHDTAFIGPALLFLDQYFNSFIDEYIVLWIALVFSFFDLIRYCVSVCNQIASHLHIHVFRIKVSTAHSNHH
UniProt Q86X02: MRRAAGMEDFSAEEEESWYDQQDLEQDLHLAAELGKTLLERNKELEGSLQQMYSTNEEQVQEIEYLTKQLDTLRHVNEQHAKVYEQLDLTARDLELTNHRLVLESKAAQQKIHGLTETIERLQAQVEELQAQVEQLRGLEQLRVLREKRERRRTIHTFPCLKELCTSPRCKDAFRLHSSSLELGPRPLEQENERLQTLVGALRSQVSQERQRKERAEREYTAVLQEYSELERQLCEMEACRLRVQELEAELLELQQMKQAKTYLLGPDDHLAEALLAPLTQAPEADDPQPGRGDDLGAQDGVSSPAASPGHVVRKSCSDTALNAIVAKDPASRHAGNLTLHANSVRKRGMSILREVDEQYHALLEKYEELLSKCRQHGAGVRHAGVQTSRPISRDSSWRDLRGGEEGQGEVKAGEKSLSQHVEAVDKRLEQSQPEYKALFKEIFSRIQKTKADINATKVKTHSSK
UniProt Q96G23: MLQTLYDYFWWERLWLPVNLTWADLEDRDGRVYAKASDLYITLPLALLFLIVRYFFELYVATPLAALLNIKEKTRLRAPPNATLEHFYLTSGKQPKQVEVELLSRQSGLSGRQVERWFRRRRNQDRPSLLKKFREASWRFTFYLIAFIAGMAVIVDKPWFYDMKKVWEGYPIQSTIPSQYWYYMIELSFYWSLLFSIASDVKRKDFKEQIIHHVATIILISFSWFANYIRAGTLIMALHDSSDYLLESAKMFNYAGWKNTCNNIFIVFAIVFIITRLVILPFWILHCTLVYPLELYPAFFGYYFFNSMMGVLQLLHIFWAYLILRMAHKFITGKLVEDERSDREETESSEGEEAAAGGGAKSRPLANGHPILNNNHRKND
UniProt Q5VXU3: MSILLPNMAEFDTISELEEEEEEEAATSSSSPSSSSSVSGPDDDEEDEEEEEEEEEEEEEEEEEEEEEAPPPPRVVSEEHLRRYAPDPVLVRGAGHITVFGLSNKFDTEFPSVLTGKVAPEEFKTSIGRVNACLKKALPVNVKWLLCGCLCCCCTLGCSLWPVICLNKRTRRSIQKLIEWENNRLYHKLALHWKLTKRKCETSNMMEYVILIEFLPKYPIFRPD
UniProt Q9NRR8: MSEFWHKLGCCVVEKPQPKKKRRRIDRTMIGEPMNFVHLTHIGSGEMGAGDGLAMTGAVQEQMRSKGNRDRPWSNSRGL

sotrastaurin = compound: CN1CCN(c2nc(C3=C(c4c[nH]c5ccccc45)C(=O)NC3=O)c3ccccc3n2)CC1 [sotrastaurin]
Outline: as §1

alvocidib = compound: CN1CC[C@H](c2c(O)cc(O)c3c(=O)cc(-c4ccccc4Cl)oc23)[C@H](O)C1 [alvocidib]
Outline: as §1

Tubastatin A = compound: CN1CCc2c(c3ccccc3n2Cc2ccc(C(=O)NO)cc2)C1 [Tubastatin A]
Outline: as §1

[1] = compound: CNC(=O)C1=CC=CC=C1NC2=NC(=NC=C2Cl)NC3=C(C=C(C=C3)N4CCOCC4)OC
Outline: as §1

defactinib = compound: CNC(=O)c1ccc(Nc2ncc(C(F)(F)F)c(NCc3nccnc3N(C)S(C)(=O)=O)n2)cc1 [defactinib]
Outline: as §1

rucaparib = compound: CNCc1ccc(-c2[nH]c3cc(F)cc4c3c2CCNC4=O)cc1 [rucaparib]
Outline: as §1

[2] = compound: CNc1nc(-c2ccc3c(N)n[nH]c3c2)cc(N2C[C@@H](C(=O)NC3CCCCC3)CC[C@H]2C)n1
Outline: as §1

encorafenib = compound: COC(=O)N[C@@H](C)CNc1nccc(-c2cn(C(C)C)nc2-c2cc(Cl)cc(NS(C)(=O)=O)c2F)n1 [encorafenib]
Outline: as §1

[3] = compound: COC(=O)[C@H](CCSC)NC(=O)C1=C(C=C(C=C1)NC[C@H](CS)N)C2=CC=CC=C2
Outline: as §1

Measured: log2 fold change

CDK2 (UniProt P24941)
inactive: saracatinib -0.026 | sotrastaurin 0 | alvocidib 0.004 | Tubastatin A -0.025 | [1] 0.02 | defactinib 0.028 | rucaparib 0.018 | [2] -0.048 | encorafenib -0.01 | [3] 0.006

CDC73 (UniProt Q6P1J9)
inactive: saracatinib 0.024 | sotrastaurin 0.331 | alvocidib 0.088 | Tubastatin A 0.085 | [1] -0.016 | defactinib -0.05 | rucaparib 0.183 | [2] 0.041 | encorafenib 0.002 | [3] 0.128

CHMP4A isoform 2 (UniProt Q9BY43)
inactive: saracatinib 0.014 | sotrastaurin 0.027 | alvocidib 0.082 | Tubastatin A -0.001 | [1] -0.053 | defactinib 0.013 | rucaparib -0.046 | [2] -0.027 | encorafenib -0.05 | [3] 0.028

CDC45 isoform 3 (UniProt O75419)
inactive: saracatinib -0.313 | sotrastaurin -0.28 | alvocidib -0.251 | Tubastatin A 0.15 | rucaparib -0.051 | [2] 0.17 | encorafenib 0.243

CHAMP1 (UniProt Q96JM3)
inactive: saracatinib 0.103 | sotrastaurin -0.007 | Tubastatin A -0.036 | [1] -0.064 | defactinib -0.104 | rucaparib 0.053 | [2] -0.001 | encorafenib 0.048 | [3] 0.049

CELF2 isoform 3 (UniProt O95319)
inactive: saracatinib -0.011 | sotrastaurin 0.076 | Tubastatin A -0.102 | [1] -0.034 | defactinib 0.098 | rucaparib 0.125 | [2] -0.099 | encorafenib -0.041 | [3] -0.032

Reprinted from above (2 entries):
CDK2 (UniProt P24941)
inactive: saracatinib -0.026 | sotrastaurin 0 | alvocidib 0.004 | Tubastatin A -0.025 | [1] 0.02 | defactinib 0.028 | rucaparib 0.018 | [2] -0.048 | encorafenib -0.01 | [3] 0.006

CDC73 (UniProt Q6P1J9)
inactive: saracatinib 0.024 | sotrastaurin 0.331 | alvocidib 0.088 | Tubastatin A 0.085 | [1] -0.016 | defactinib -0.05 | rucaparib 0.183 | [2] 0.041 | encorafenib 0.002 | [3] 0.128

Carrying on.

CEBPZOS (UniProt A8MTT3)
inactive: saracatinib 0.079 | Tubastatin A -0.06 | [1] 0.039 | defactinib -0.012 | rucaparib 0.159 | [2] -0.032 | encorafenib -0.038 | [3] -0.02

CDC42EP1 (UniProt Q00587)
inactive: saracatinib -0.017 | sotrastaurin 0.025 | Tubastatin A 0.001 | [1] -0.303 | defactinib -0.144 | rucaparib -0.002 | [2] 0.016 | encorafenib -0.017 | [3] 0.007

CHCHD1 (UniProt Q96BP2)
inactive: saracatinib -0.069 | sotrastaurin 0.059 | Tubastatin A -0.025 | [1] 0.132 | defactinib 0.017 | rucaparib 0.114 | [2] 0.04 | encorafenib -0.037 | [3] -0.024

CENPP (UniProt Q6IPU0)
inactive: saracatinib -0.056 | alvocidib -0.091 | Tubastatin A -0.004 | [1] -0.041 | [2] 0.096

CENPE (UniProt Q02224)
inactive: saracatinib 0.318 | sotrastaurin -0.19 | Tubastatin A 0.091 | [1] -0.277 | defactinib -0.056 | [2] 0.399 | [3] 0.198

CEBPB (UniProt P17676)
inactive: saracatinib 0.123 | alvocidib 0.148 | Tubastatin A -0.304 | [1] -0.002 | rucaparib 0.122 | [2] 0.046 | encorafenib 0.026

CEP128 (UniProt Q6ZU80)
inactive: saracatinib -0.092 | sotrastaurin -0.022 | Tubastatin A 0.024 | defactinib 0.027 | rucaparib -0.306 | [2] -0.22 | encorafenib 0.061 | [3] 0.044

CENPC (UniProt Q03188)
inactive: saracatinib 0.142 | alvocidib 0.033 | [1] 0.118 | defactinib 0.048 | rucaparib 0.24 | [2] -0.006 | encorafenib 0.076 | [3] 0.052

CETN2 (UniProt P41208)
inactive: saracatinib 0.095 | sotrastaurin 0.077 | Tubastatin A -0.128 | [1] -0.03 | defactinib -0.054 | rucaparib 0.031 | [2] 0.058 | encorafenib -0.079 | [3] 0.06

CDK5RAP1 (UniProt Q96SZ6)
active: Tubastatin A -0.238
inactive: saracatinib 0.192 | sotrastaurin 0.072 | [1] 0.044 | defactinib 0.022 | rucaparib 0.035 | [2] 0.057 | encorafenib 0.053 | [3] -0.048

CHMP4B (UniProt Q9H444)
inactive: saracatinib 0.021 | sotrastaurin -0.061 | Tubastatin A -0.024 | [1] -0.026 | defactinib -0.017 | rucaparib 0.02 | [2] -0.019 | encorafenib -0.055 | [3] 0.054

CHKA (UniProt P35790)
inactive: saracatinib 0.028 | sotrastaurin 0.107 | Tubastatin A 0.148 | [1] -0.033 | defactinib 0.006 | rucaparib 0.046 | [2] -0.027 | encorafenib -0.107 | [3] 0.056

CDK5RAP3 isoform 4 (UniProt Q96JB5)
inactive: saracatinib -0.009 | sotrastaurin -0.099 | Tubastatin A 0.024 | [1] 0.035 | defactinib -0.045 | rucaparib -0.029 | [2] 0.002 | encorafenib 0.033 | [3] -0.043

CDK1 (UniProt P06493)
inactive: saracatinib 0.007 | sotrastaurin -0.045 | Tubastatin A 0.018 | [1] -0.043 | defactinib -0.118 | rucaparib 0.013 | [2] 0.01 | encorafenib -0.01 | [3] 0.003

CDK13 (UniProt Q14004)
inactive: saracatinib -0.133 | sotrastaurin -0.121 | Tubastatin A 0.042 | [1] -0.071 | defactinib -0.01 | rucaparib 0.06 | [2] -0.129 | encorafenib 0.104 | [3] 0.036

CEPT1 (UniProt Q9Y6K0)
inactive: saracatinib 0.015 | sotrastaurin 0.033 | Tubastatin A 0.042 | [1] 0.001 | defactinib -0.005 | rucaparib -0.126 | [2] -0.056 | encorafenib 0.052 | [3] -0.056

CDKN2AIP (UniProt Q9NXV6)
inactive: saracatinib 0.057 | sotrastaurin 0.023 | Tubastatin A 0.013 | [1] 0.052 | defactinib 0.055 | rucaparib -0.055 | [2] 0.033 | encorafenib 0.02 | [3] -0.029

CDR2L (UniProt Q86X02)
inactive: saracatinib 0.063 | alvocidib -0.266 | Tubastatin A 0.043 | [1] -0.128 | defactinib -0.06 | rucaparib -0.053 | [2] -0.034 | encorafenib -0.126 | [3] -0.013

CERS2 (UniProt Q96G23)
inactive: saracatinib 0.012 | sotrastaurin -0.033 | Tubastatin A -0.056 | [1] -0.121 | defactinib -0.001 | rucaparib 0.002 | [2] -0.048 | encorafenib 0.017 | [3] 0.03

CDKN1C (UniProt P49918)
inactive: saracatinib 0.046 | sotrastaurin -0.284 | rucaparib 0 | [2] -0.193 | encorafenib -0.404

CHAC2 (UniProt Q8WUX2)
inactive: saracatinib -0.016 | sotrastaurin -0.028 | Tubastatin A -0.02 | [1] -0.02 | defactinib -0.07 | rucaparib 0.122 | [2] -0.05 | encorafenib 0.237 | [3] 0.025

CHIC1 (UniProt Q5VXU3)
inactive: saracatinib -0.148 | sotrastaurin 0.035 | Tubastatin A -0.096 | [1] 0.022 | rucaparib -0.21 | [2] -0.07 | encorafenib -0.09

CDC42SE1 (UniProt Q9NRR8)
active: Tubastatin A -0.562
inactive: saracatinib 0.074 | sotrastaurin -0.033 | [1] 0.228 | defactinib -0.041 | rucaparib 0.087 | [2] 0.01 | encorafenib -0.032 | [3] 0.077

CDK12 (UniProt Q9NYV4)
inactive: saracatinib -0.113 | sotrastaurin -0.406 | Tubastatin A 0.165 | [1] -0.309 | defactinib -0.052 | rucaparib 0.072 | [2] 0.003 | encorafenib 0.09 | [3] 0.157

CDK6 (UniProt Q00534)
inactive: saracatinib 0.002 | sotrastaurin -0.005 | Tubastatin A 0.022 | [1] 0.016 | defactinib -0.029 | rucaparib 0.065 | [2] -0.02 | encorafenib 0.011 | [3] 0.004

CDK16 isoform 2 (UniProt Q00536)
inactive: saracatinib -0.014 | sotrastaurin 0.246 | Tubastatin A 0.014 | [1] 0.027 | defactinib 0.236 | rucaparib 0.278 | [2] -0.102 | encorafenib 0.016 | [3] -0.146

CDKN1B (UniProt P46527)
inactive: saracatinib 0.29 | sotrastaurin 0.129 | [1] -0.247 | defactinib 0.163 | [2] -0.298 | [3] 0.028

CES2 isoform 4 (UniProt O00748)
inactive: saracatinib 0.04 | sotrastaurin 0.196 | Tubastatin A 0.115 | [1] 0.247 | defactinib -0.164 | rucaparib 0.3 | [2] 0.218 | encorafenib -0.145 | [3] 0.044
